The test system of the assay is primary human hepatic stellate cells (donor 1). The assay is described as follows: percent Bodipy-positive cells; higher = more lipid droplet accumulation. As to conditions: 48 h.
[1] abbreviates: library stock concentration: 1 mM.
The mark [2] stands for this setting: library stock concentration: 3.33 mM.
Where [3] appears, read: library stock concentration: 10 mM.

Structures can show the parent of a compound that is named as a salt. ± gives the standard deviation of the averaged measurements. The list shows a part of the results. Part of the spread comes from offsets between plates or batches.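 Culture-activated primary human stellate myofibroblasts, where regained lipid droplets signal inactivation. Value: share of Hoechst-counted cells above a per-plate Bodipy cutoff, in duplicate wells, with DMSO negative and nortriptyline positive controls on each plate. Hits: a control-normalized score above the plate's top-tenth-percentile nortriptyline wells, or one of a plate's three best wells. Final well concentrations are not given.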

Take `CCCCCCCCCSCCCCCCCC(=O)O` [9-Thiastearic Acid]: under setting [1], the “percent Bodipy-positive cells” value amounted to 5.75 ± 1.1%.
For `CCCCCCCCCCCC(=O)CC(=O)N[C@H]1CCOC1=O` [N-3-oxo-tetradecanoyl-L-Homoserine lactone], the “percent Bodipy-positive cells” value under setting [1] came out at 11.3 ± 5.2%.
Regarding `CNC(=O)c1c(F)cccc1Nc1nc(Nc2cc3c(cc2OC)CCN3C(=O)CN(C)C)nc2[nH]ccc12`, the “percent Bodipy-positive cells” value under setting [2] stood at 98.08 ± 0.79%.
As for `N#CC(=Cc1cc(Cl)cc(Cl)c1)c1cccnc1`, under “library stock concentration: 18.2 mM”, the “percent Bodipy-positive cells” value turned out to be 19.1 ± 1.6%.
For `CCCCCCCCCC[Si](C)(C)CCC(=O)NC(Cc1ccc(C)cc1)c1ccccc1` (stereo unspecified) [Sandoz 58-035], under setting [3], the “percent Bodipy-positive cells” value amounted to 45.6 ± 17%.
Consider `COC(=O)Nc1ccc(-c2nc(N3CCOCC3)c3cnn(C4CCN(C(=O)OC)CC4)c3n2)cc1`, for which the “percent Bodipy-positive cells” value is 8.31 ± 2.6% under setting [2] and 21.7 ± 1.2% under setting [3].
In the case of `O=C(O)CN(CC(=O)O)Cc1cc2c(cc1O)Oc1cc(O)c(CN(CC(=O)O)CC(=O)O)cc1C21OC(=O)c2ccccc21` [Calcein], the “percent Bodipy-positive cells” value under setting [3] is 0%.
In the case of `NCCCC(O)(P(=O)(O)O)P(=O)(O)O` [Alendronate sodium], the “percent Bodipy-positive cells” value (library stock concentration: 6.1 mM) amounted to 9.944 ± 0.08%.
As for `NCCCC(O)(P(=O)(O)O)P(=O)(O)O` [Alendronate], under “library stock concentration: 8.1 mM”, the “percent Bodipy-positive cells” value was determined as 10.5 ± 1.4%.
As to `O=C1NCCc2[nH]c(-c3ccnc(-c4cnc5ccccc5c4)c3)cc21` [MK-2 Inhibitor III], the “percent Bodipy-positive cells” value under setting [2] amounted to 11.4 ± 3.2%.
Turning to `Nc1ccc(S(=O)(=O)Nc2cnc3ccccc3n2)cc1` [Sulfaquinoxaline sodium salt], the “percent Bodipy-positive cells” value came to 11 ± 2.1%.
`Nc1ccc(S(=O)(=O)Nc2cnc3ccccc3n2)cc1` [Sulfaquinoxaline sodium]: where the note is “library stock concentration: 6.2 mM”, the “percent Bodipy-positive cells” value worked out at 20.08 ± 0.18%.
As to `CNC[C@H](O)[C@@H](O)[C@H](O)[C@H](O)CO` [Meglumine], the “percent Bodipy-positive cells” value amounted to 9.71 ± 2.2%. Moreover, the “percent Bodipy-positive cells” value under setting [2] is 7.53 ± 3.5%. Moreover, the “percent Bodipy-positive cells” value under setting [3] came out at 13.8 ± 4.7%.
Turning to `COC(=O)N[C@H](C(=O)N[C@@H](Cc1ccccc1)[C@@H](O)CN(Cc1ccc(-c2ccccn2)cc1)NC(=O)[C@@H](NC(=O)OC)C(C)(C)C)C(C)(C)C` [Atazanavir Sulfate], the “percent Bodipy-positive cells” value reads like this: under setting [2], 5.56 ± 2.3%; under setting [3], 10.2 ± 6.8%.
As for `COC(=O)N[C@H](C(=O)N[C@@H](Cc1ccccc1)[C@@H](O)CN(Cc1ccc(-c2ccccn2)cc1)NC(=O)[C@@H](NC(=O)OC)C(C)(C)C)C(C)(C)C` [Atazanavir], where the note is “library stock concentration: 2.8 mM”, the “percent Bodipy-positive cells” value came out at 5.4 ± 0.31%.
For `CC/C=C\C/C=C\C/C=C\C/C=C\CCCCCCC(=O)OCC` [.omega.-3 Arachidonic Acid ethyl ester], the “percent Bodipy-positive cells” value under setting [1] was found to be 9.25 ± 0.47%.
As to `N.N.O=C([O-])C[O-].[Pt+2]` [Nedaplatin], the “percent Bodipy-positive cells” value (library stock concentration: 6.6 mM) was 4.92 ± 1.2%.
Take `CC(=O)Oc1ccccc1C(=O)Oc1ccccc1C(=O)O` [Acetylsalicylsalicylic acid]: the “percent Bodipy-positive cells” value came to 29 ± 9%.
Take `O=c1ncc(F)c[nH]1` [5-fluoro-2-pyrimidone]: the “percent Bodipy-positive cells” value under setting [3] came to 7.7 ± 2.8%.
Take `CC1(C)[C@H]2CC[C@@]1(C)C(=O)C2` [1r-camphor]: the “percent Bodipy-positive cells” value under setting [3] came out at 12.1 ± 1.9%.
As to `CCCCNc1cc(C(=O)O)cc(S(N)(=O)=O)c1Oc1ccccc1` [Bumetanide], the “percent Bodipy-positive cells” value is 42.7 ± 18%. Moreover, the “percent Bodipy-positive cells” value under setting [2] came to 10.2 ± 2.7%.

The values are drawn from the supplement of paper PMC9135407.
